Measured values from publication doi:10.1101/488049.
These are yes or no findings as the source states them, for the method shown. Binding seen in cells or lysates may run through a third protein. Here binding means that the protein was enriched with, or labelled near, the bait; the list need not be complete. For some assays here: A no says only that the protein was not detected with the bait. Sequences can lack the tags named with a protein.

Tests used:
[1] = target: T1, KIF1C-BioID2-HA (KIF1C full length) (human) (UniProt O43896); assay: proximity labelling
T1 sequence: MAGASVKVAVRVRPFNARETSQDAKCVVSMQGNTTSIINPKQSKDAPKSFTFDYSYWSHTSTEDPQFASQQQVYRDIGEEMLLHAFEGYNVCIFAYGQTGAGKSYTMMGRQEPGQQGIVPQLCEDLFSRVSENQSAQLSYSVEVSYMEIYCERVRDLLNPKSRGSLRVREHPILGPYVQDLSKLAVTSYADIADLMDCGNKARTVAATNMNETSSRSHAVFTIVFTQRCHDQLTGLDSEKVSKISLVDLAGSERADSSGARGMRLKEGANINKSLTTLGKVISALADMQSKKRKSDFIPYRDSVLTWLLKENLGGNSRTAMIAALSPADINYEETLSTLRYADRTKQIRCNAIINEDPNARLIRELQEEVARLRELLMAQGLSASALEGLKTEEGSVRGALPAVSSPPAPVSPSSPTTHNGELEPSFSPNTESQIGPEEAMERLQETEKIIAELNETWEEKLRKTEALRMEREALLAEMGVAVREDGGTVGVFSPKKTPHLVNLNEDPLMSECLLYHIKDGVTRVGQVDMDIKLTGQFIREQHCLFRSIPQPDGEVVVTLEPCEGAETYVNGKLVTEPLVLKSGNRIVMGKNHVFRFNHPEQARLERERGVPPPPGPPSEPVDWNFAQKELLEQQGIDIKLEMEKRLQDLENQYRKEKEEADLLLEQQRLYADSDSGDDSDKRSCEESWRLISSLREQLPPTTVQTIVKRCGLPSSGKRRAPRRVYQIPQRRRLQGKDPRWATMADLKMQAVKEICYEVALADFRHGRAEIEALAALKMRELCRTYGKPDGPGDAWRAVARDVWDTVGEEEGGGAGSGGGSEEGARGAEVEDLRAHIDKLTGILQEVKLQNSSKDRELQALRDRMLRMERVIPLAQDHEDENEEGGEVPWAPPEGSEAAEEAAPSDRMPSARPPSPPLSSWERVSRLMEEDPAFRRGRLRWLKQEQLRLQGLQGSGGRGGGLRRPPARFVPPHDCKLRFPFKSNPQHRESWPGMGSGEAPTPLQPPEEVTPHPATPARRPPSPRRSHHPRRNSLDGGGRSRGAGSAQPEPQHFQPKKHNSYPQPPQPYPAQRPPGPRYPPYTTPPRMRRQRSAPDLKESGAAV

[2] = target: T2, KIF1CΔ623-825-BioID2-HA (human) (UniProt O43896); assay: proximity labelling
T2 sequence: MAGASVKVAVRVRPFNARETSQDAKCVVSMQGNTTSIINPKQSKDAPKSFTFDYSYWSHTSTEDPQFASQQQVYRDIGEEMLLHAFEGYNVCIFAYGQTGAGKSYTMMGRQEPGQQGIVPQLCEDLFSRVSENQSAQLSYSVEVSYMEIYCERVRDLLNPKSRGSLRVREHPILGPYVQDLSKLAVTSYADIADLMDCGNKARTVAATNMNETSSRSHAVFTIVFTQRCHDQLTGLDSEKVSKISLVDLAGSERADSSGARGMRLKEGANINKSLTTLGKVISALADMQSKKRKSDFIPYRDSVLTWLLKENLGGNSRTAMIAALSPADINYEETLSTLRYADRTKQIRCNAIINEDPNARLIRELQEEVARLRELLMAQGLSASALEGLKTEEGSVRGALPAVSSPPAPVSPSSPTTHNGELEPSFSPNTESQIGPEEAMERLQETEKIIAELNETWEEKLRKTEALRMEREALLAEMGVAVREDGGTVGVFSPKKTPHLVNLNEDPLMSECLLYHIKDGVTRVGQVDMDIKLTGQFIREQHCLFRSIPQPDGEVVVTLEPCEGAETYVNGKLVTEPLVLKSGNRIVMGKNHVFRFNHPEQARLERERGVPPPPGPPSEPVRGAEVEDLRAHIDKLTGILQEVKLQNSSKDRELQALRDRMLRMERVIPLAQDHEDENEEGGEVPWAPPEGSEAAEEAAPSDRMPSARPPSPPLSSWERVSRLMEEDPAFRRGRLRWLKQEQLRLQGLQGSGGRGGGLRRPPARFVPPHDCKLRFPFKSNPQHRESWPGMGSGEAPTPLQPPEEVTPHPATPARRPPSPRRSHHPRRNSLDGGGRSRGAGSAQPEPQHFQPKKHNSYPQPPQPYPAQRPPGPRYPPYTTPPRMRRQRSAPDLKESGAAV

B1: Hook3 (endogenous, RPE1 cells) (protein, UniProt Q86VS8 1-718)
chain: MFSVESLERAELCESLLTWIQTFNVDAPCQTVEDLTNGVVMAQVLQKIDPAYFDENWLNRIKTEVGDNWRLKISNLKKILKGILDYNHEILGQQINDFTLPDVNLIGEHSDAAELGRMLQLILGCAVNCEQKQEYIQAIMMMEESVQHVVMTAIQELMSKESPVSAGNDAYVDLDRQLKKTTEELNEALSAKEEIAQRCHELDMQVAALQEEKSSLLAENQVLMERLNQSDSIEDPNSPAGRRHLQLQTQLEQLQEETFRLEAAKDDYRIRCEELEKEISELRQQNDELTTLADEAQSLKDEIDVLRHSSDKVSKLEGQVESYKKKLEDLGDLRRQVKLLEEKNTMYMQNTVSLEEELRKANAARSQLETYKRQVVELQNRLSEESKKADKLDFEYKRLKEKVDSLQKEKDRLRTERDSLKETIEELRCVQAQEGQLTTQGLMPLGSQESSDSLAAEIVTPEIREKLIRLQHENKMLKLNQEGSDNEKIALLQSLLDDANLRKNELETENRLVNQRLLEVQSQVEELQKSLQDQGSKAEDSVLLKKKLEEHLEKLHEANNELQKKRAIIEDLEPRFNNSSLKIEELQEALRKKEEEMKQMEERYKKYLEKAKSVIRTLDPKQNQGAAPEIQALKNQLQERDRLFHSLEKEYEKTKSQREMEEKYIVSAWYNMGMTLHKKAAEDRLASTGSGQSFLARQRQATSSRRSYPGHVQPATAR
modifications: biotinylated by BioID2 in cells
With B1 the binding [1] was “binds” and the binding [2] was “no binding”.
